These are yes or no findings as the source states them, for the method shown. Binding seen in cells or lysates may run through a third protein. Some binding calls cover weakened binding; strength is not graded here.
What was measured:
[1] = biological target: HA-V1B2 (HA-tagged V-ATPase V1 domain subunit B2, Atp6v1b2) (mouse) (UniProt P62814); test: co-IP; anti-HA magnetic beads, HA-V1B2 as bait; lysates of iCas9 MEFs expressing HA-V1B2 and Flag-Voa1, Flag-Voa2 or Flag-Voa3, control or Wdr7, Dmxl1 or Dmxl2 iKO; V1-Vo IP buffer (40 mM HEPES pH 7.4, 150 mM NaCl, 2 mM EDTA, 2.5 mM MgCl2, 5% glycerol, 1% Triton X-100), 2 h at 4 °C; immunoblotting
[2] = biological target: HA-V1B2 (HA-tagged V-ATPase V1 domain subunit B2, Atp6v1b2) (mouse) (UniProt P62814); test: co-IP; anti-HA magnetic beads, HA-V1B2 as bait; lysates of wild-type MEFs expressing HA-V1B2 and V5-Wdr7; V1-Wdr7 IP buffer (40 mM HEPES pH 7.4, 150 mM NaCl, 1% Triton X-100), 2 h at 4 °C; immunoblotting

Sequences of proteins named here, by UniProt entry; tags and fusion partners are left off.
UniProt P62814: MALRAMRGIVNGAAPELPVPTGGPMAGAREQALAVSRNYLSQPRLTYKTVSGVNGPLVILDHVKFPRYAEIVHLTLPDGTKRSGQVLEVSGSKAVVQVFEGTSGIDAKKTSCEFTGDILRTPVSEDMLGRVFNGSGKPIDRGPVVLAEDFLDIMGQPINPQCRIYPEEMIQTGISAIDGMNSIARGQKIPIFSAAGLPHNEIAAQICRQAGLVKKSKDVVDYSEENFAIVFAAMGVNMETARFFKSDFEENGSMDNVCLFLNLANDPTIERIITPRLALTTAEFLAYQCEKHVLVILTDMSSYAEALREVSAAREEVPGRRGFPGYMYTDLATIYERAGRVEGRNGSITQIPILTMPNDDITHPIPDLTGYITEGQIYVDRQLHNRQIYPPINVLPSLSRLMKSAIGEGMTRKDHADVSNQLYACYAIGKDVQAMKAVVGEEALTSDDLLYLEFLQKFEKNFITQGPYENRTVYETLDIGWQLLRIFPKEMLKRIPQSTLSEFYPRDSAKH
UniProt P15920: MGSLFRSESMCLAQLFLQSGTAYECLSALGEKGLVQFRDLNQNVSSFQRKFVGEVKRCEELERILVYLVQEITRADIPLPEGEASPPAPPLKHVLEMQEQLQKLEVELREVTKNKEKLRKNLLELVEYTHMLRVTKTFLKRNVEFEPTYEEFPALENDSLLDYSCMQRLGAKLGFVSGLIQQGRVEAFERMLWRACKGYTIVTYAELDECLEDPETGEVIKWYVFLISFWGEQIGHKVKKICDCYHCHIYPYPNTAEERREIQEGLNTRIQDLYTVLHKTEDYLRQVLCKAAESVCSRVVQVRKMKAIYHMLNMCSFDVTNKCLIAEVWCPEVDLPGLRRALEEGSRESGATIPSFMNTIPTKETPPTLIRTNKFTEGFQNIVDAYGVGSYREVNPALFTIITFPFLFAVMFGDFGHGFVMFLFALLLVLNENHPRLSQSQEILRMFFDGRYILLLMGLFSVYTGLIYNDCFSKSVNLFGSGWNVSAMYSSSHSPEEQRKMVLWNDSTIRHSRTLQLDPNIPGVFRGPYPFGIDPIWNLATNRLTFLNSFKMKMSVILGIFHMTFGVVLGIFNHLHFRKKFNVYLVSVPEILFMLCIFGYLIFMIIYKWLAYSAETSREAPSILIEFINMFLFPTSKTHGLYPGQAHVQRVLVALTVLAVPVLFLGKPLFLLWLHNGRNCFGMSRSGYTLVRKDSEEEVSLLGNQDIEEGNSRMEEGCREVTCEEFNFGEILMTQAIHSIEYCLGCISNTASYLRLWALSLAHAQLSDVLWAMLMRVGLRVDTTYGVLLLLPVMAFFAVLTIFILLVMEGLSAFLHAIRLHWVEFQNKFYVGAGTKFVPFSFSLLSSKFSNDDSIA
UniProt Q9Z1G4: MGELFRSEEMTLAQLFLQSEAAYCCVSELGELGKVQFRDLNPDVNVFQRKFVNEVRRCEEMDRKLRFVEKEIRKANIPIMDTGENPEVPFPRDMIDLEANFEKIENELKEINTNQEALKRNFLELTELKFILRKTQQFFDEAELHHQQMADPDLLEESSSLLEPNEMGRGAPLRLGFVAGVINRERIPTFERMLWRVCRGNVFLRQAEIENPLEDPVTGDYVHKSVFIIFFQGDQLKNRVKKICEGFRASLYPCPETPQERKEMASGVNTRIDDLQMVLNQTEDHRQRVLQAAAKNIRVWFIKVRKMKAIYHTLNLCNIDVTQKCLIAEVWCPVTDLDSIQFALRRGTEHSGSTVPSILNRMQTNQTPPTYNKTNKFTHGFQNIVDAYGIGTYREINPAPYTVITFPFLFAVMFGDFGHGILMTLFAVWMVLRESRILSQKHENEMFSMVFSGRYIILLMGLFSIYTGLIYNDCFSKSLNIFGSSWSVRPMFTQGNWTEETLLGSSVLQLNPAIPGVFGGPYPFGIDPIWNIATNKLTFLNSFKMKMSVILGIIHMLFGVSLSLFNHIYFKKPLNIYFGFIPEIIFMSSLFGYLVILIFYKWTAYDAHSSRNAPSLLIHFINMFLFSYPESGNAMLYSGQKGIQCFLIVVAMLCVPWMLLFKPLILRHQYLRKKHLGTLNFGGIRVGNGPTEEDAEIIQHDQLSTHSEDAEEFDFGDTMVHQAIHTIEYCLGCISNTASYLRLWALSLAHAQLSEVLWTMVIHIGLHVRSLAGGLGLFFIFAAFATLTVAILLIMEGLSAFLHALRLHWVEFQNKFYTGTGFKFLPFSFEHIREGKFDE
UniProt Q920I9: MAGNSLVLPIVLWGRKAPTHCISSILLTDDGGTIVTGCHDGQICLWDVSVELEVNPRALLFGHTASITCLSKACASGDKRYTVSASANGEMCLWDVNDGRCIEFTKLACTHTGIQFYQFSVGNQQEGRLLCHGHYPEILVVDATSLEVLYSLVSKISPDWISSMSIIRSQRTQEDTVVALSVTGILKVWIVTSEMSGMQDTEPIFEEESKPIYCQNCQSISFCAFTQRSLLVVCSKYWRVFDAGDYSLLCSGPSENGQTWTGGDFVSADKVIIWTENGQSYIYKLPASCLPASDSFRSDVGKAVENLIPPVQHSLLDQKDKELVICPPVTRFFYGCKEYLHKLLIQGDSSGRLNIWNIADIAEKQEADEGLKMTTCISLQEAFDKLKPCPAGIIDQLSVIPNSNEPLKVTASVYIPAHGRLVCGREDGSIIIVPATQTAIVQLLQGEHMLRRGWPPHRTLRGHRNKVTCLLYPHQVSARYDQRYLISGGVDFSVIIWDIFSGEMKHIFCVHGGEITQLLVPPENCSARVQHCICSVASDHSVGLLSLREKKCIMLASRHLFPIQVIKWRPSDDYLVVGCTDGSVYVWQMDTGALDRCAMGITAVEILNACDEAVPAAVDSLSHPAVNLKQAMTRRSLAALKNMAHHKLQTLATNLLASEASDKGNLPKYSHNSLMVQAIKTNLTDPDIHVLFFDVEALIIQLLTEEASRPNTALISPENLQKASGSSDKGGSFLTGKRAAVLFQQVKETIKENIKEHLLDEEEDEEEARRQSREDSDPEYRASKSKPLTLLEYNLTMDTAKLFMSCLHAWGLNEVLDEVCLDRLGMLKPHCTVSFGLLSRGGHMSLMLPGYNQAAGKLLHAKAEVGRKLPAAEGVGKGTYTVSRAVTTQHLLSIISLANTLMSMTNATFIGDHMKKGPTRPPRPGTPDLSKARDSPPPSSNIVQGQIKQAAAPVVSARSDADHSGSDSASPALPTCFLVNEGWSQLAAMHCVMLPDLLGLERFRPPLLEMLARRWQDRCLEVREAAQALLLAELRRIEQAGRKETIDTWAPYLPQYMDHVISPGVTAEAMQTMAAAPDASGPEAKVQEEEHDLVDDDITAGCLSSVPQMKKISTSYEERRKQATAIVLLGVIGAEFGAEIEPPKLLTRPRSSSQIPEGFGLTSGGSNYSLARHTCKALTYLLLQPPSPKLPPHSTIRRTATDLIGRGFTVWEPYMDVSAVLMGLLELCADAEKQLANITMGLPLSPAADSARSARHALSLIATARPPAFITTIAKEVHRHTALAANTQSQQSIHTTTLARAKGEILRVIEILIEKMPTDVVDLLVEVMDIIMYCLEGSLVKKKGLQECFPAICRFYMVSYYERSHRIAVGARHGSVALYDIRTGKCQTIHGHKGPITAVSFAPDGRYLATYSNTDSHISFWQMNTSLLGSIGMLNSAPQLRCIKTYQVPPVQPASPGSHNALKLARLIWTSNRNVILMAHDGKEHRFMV

## Flag-Voa2 (Flag-tagged V-ATPase Vo subunit a2, Atp6v0a2) (from UniProt P15920 1-856)
[1]
  binding: binds

## Flag-Voa1 (Flag-tagged V-ATPase Vo subunit a1, Atp6v0a1) (from UniProt Q9Z1G4 1-839)
[1]
  binding: binds

## V5-Wdr7 (V5-tagged Wdr7) (from UniProt Q920I9 1-1489)
[2]
  binding: binds

Reference: paper PMC13534531
